Test results reported in publication PMC7819943, “Rice protein-binding microarrays: a tool to detect cis-acting elements near promoter regions in rice”.
The list shows a part of the results.

By UniProt entry, the sequences of proteins in these tests, tags left out.
UniProt Q0JBA9, entry or part of it: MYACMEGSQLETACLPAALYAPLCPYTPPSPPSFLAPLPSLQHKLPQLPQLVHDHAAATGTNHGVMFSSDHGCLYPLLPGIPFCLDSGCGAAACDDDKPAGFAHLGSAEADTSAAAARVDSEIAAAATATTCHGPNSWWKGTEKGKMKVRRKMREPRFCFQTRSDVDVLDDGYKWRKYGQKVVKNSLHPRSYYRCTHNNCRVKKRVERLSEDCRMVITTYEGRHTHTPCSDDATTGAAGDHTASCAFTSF

molecular target: OsWRKY34 (Oryza sativa, UniProt Q0JBA9 1-250); test: protein-binding microarray (RPBM); PBS, 2% BSA, 51.3 ng/ul salmon testes DNA, 50 uM zinc acetate, 200 nM TF, 25 C, 1 h; high values mean tight binding; settings: protein: recombinant; tags: N-terminal polyhistidine and DsRed monomer fusion (pET32a); label: CyDye5-dUTP incorporated in the synthesized complementary strand; 3' TTTTT single-stranded linker to array surface; dsDNA, one strand shown
Method in brief: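 The binding signal is fluorescence intensity per array feature (arbitrary units). Readings came from an Axon 4000B scanner after a washed, 2% BSA-blocked, double-stranded custom Agilent array had been incubated for 1 h at 25 °C with 200 nM protein and 50 µM zinc acetate. The protein was a Ni–NTA-purified transcription factor fused N-terminally to polyhistidine and DsRed, expressed in E. coli BL21-CodonPlus.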

Sequence | binding signal
TACATACTCCCCGTAGGCTCACACTCCCAATCTCTACTTGCGGAGTCACCTAGTGCAG | 8650 fluorescence intensity (a.u.)
CAGAAGTCCATGCTCCACCGGTAGCTCCATCACCATCTGTCGGAGTCACCTAGTGCAG | 8650 fluorescence intensity (a.u.)
ACATCCATTTTTTTTAAATTTTCCTTTTATTTTTCACTGCCGGAGTCACCTAGTGCAG | 9050 fluorescence intensity (a.u.)
GTACTACGTAGATCCCTATTCCGACGTAACCCAATACTCTCGGAGTCACCTAGTGCAG | 8280 fluorescence intensity (a.u.)
TGGGGTGGGTGCCCGGAGCTTTGATGCGCGTGGCCGCCGGCGGAGTCACCTAGTGCAG | 12400 fluorescence intensity (a.u.)
AAATCCTTTCGAAATTTCACTTGTAATCTACTTTTGTCCCCGGAGTCACCTAGTGCAG | 8770 fluorescence intensity (a.u.)
AGGGAATGATACTACCTTTTCAGCCACTCACCATGACGTTCGGAGTCACCTAGTGCAG | 9070 fluorescence intensity (a.u.)
ACCCTAACCCTAGCCGCCTCTCTCTCGACCGCTCGTCTCTCGGAGTCACCTAGTGCAG | 13400 fluorescence intensity (a.u.)
ACTCGCTTTGGTGGCGGAGAGTTTTTTTTTTTCCCTTTTCCGGAGTCACCTAGTGCAG | 11500 fluorescence intensity (a.u.)
CGCTAGAATTGTTCTATGTCTTTTTATTTTTCTCTAGTCCCGGAGTCACCTAGTGCAG | 8130 fluorescence intensity (a.u.)
TCGGCTCACCGCCTCACCGGCTCACATCGCATCATCGACACGGAGTCACCTAGTGCAG | 9070 fluorescence intensity (a.u.)
CTACCTTTTCTTTTCATGTGCTTGACGGGCCGCGAATGTCCGGAGTCACCTAGTGCAG | 9880 fluorescence intensity (a.u.)
GCACGCTGTTAGTTGAAACATATTGCACCTTTTCTCTATTCGGAGTCACCTAGTGCAG | 9160 fluorescence intensity (a.u.)
ACCACGACGGCCTGTGTCCACCCGTCGCTTGCCAGTTCACCGGAGTCACCTAGTGCAG | 9010 fluorescence intensity (a.u.)
ATCCCGTCCCTGACCTGTAACCATTATCAATCATGCTCGACGGAGTCACCTAGTGCAG | 9210 fluorescence intensity (a.u.)
GACATGTGCTCCTTGTTGTTTGGCTTGGTCCGCTAGTTCCCGGAGTCACCTAGTGCAG | 11200 fluorescence intensity (a.u.)
TTTTTTGGATGGGGAGTGATCTTCTCTTACCTCGGTGGGTCGGAGTCACCTAGTGCAG | 9400 fluorescence intensity (a.u.)
GCCCCGCCAGCTTCTCCACCCAGGCCTCCGCCCTCCTCCGCGGAGTCACCTAGTGCAG | 8230 fluorescence intensity (a.u.)
AACTGCTGAACCTCTAAACATTGACACGTACTGTATATTCCGGAGTCACCTAGTGCAG | 9860 fluorescence intensity (a.u.)
TCCTAAAATATTTCATTATTTTCTTCGTGTATGATTTATTCGGAGTCACCTAGTGCAG | 11200 fluorescence intensity (a.u.)
TCTGCTTCATTACAATTTACTTACCACTATTATCAACAAGCGGAGTCACCTAGTGCAG | 8720 fluorescence intensity (a.u.)

Sequence | binding signal
CTGATTATACCATTGTTTTCGTTGCAACTAAATCTTGATACGGAGTCACCTAGTGCAG | 9280 fluorescence intensity (a.u.)
AATTTGTATTCCTTGTCTTTGGGCTGCGACTTGTCTGGCTCGGAGTCACCTAGTGCAG | 8190 fluorescence intensity (a.u.)
CGGACTCGCGGCTCGTTTTCGCGCTCGCGCGCCTGGTCAACGGAGTCACCTAGTGCAG | 8480 fluorescence intensity (a.u.)
TGCCGTCCTCCGTCACTTCCTGCTCCGGTCGCGTTCGTACCGGAGTCACCTAGTGCAG | 8640 fluorescence intensity (a.u.)
CCGCCACCGCCGCCGCCGCCGCCACCTCTGTCTGCCGCCACGGAGTCACCTAGTGCAG | 8530 fluorescence intensity (a.u.)
AGTTCTCATCTCCAATTTTCTCGGTACGTGTATTTGAGGGCGGAGTCACCTAGTGCAG | 8240 fluorescence intensity (a.u.)
TTTTTCTCTCGTTCACATTCACCCCACAAGAATCTTATCGCGGAGTCACCTAGTGCAG | 8620 fluorescence intensity (a.u.)
ATCTATGGTCAAAGTCAACACCATCGTAATTCTCACCTGGCGGAGTCACCTAGTGCAG | 9730 fluorescence intensity (a.u.)
AAGCGGGGATTTTATGTGGGCAGTGGGTTTTCTTCTTAAACGGAGTCACCTAGTGCAG | 19300 fluorescence intensity (a.u.)
CCGTGTTAATGTAAGTGTTCCGTTGCTGTCCGTGTGAATTCGGAGTCACCTAGTGCAG | 9260 fluorescence intensity (a.u.)
GTTGCATCCAGAGCCCGCCCCGCGTCTCTACTCGCTCCGCCGGAGTCACCTAGTGCAG | 8330 fluorescence intensity (a.u.)
TTTCCTCCGTTTCATATTAAGTCATTTGACTTTTTTTGTCCGGAGTCACCTAGTGCAG | 9460 fluorescence intensity (a.u.)
ATCCCATTTCCGGAAGATATTACCGTTTCTATTTCCACCACGGAGTCACCTAGTGCAG | 8620 fluorescence intensity (a.u.)
GTTTTCCTTGCTGACCTCGATTCGGAATATGGATCCGTGTCGGAGTCACCTAGTGCAG | 8190 fluorescence intensity (a.u.)
GCCGCTTCGATGCTGGCGGCAGGGTGGGGCGGGGATGCCTCGGAGTCACCTAGTGCAG | 11500 fluorescence intensity (a.u.)
TTGAAACCTTTCTGCGCCACTAGCTCCTAATTCCAAAACCCGGAGTCACCTAGTGCAG | 8040 fluorescence intensity (a.u.)
ATGGCATTGAGCATTACAGTTGAATTTGTGTAGTTTTTAGCGGAGTCACCTAGTGCAG | 8390 fluorescence intensity (a.u.)
TTGTCGTTTCCATGTAGAACTCTAGTTATCTTTACTTATCCGGAGTCACCTAGTGCAG | 9380 fluorescence intensity (a.u.)
AATTCCCCACCGCGCCACCGCCTCGGCCCCATCACCTCGTCGGAGTCACCTAGTGCAG | 8700 fluorescence intensity (a.u.)
TCGCCCGCGTCAGCCCCGCCGTCGCTCGTCCGTCGCCACCCGGAGTCACCTAGTGCAG | 8780 fluorescence intensity (a.u.)
TGTGGTGCGTGCCGCGTGCGGGAGGGCAGGGTGAGGTGAGCGGAGTCACCTAGTGCAG | 8810 fluorescence intensity (a.u.)

Laid out differently: results already given
GCCGCTTCGATGCTGGCGGCAGGGTGGGGCGGGGATGCCTCGGAGTCACCTAGTGCAG
  binding signal = 11500 fluorescence intensity (a.u.)
TTGAAACCTTTCTGCGCCACTAGCTCCTAATTCCAAAACCCGGAGTCACCTAGTGCAG
  binding signal = 8040 fluorescence intensity (a.u.)
ATGGCATTGAGCATTACAGTTGAATTTGTGTAGTTTTTAGCGGAGTCACCTAGTGCAG
  binding signal = 8390 fluorescence intensity (a.u.)

(further entries)

Sequence | binding signal
TGAGGCTGACACGTGGGCCCTACATTTTCTTTTCACTTACCGGAGTCACCTAGTGCAG | 9220 fluorescence intensity (a.u.)
GCTCGGTTGCTTCTCTTCTTTCCTCTCTGTCTTCTGTCTTCGGAGTCACCTAGTGCAG | 11400 fluorescence intensity (a.u.)
TCCGTCCCTAAATATTTGACGCCGTTGACTTTTTAACACACGGAGTCACCTAGTGCAG | 35700 fluorescence intensity (a.u.)
GAAGTTAGGGTTTGAGGGTTTGGTTCCGGAGGGTAGGGTCCGGAGTCACCTAGTGCAG | 9850 fluorescence intensity (a.u.)
TAACGATTTTTTTTTTGGGAGGGTGGGGATTTTTTTTTTCCGGAGTCACCTAGTGCAG | 24100 fluorescence intensity (a.u.)
AATTTTTATATTGTTGACCTGCAGATCCTTATGTTGGACTCGGAGTCACCTAGTGCAG | 8260 fluorescence intensity (a.u.)
CGATGCTCGATCGGCTGGTAATTGACCATATTTATCATTTCGGAGTCACCTAGTGCAG | 8370 fluorescence intensity (a.u.)
AATCTTAGTTACCGAATGCTAATTCCACTTACAATCATTTCGGAGTCACCTAGTGCAG | 9440 fluorescence intensity (a.u.)
GCTGCCGCAAACTCGCTCGGCTATCGTGCCATGCGCCTATCGGAGTCACCTAGTGCAG | 8300 fluorescence intensity (a.u.)
GCGCAGCGTACGTCTCATGCATGCATCCTTTATCGTACAACGGAGTCACCTAGTGCAG | 8280 fluorescence intensity (a.u.)
CGTAACCCGTTGACACCCGCGACCCCTGTTTTCGCTTTTCCGGAGTCACCTAGTGCAG | 12100 fluorescence intensity (a.u.)
CCGACGTCGTCTGCGCCATCCCTAGCCGCCGCCATCCGCTCGGAGTCACCTAGTGCAG | 9920 fluorescence intensity (a.u.)
AGGGGTTGTACAGTAGAGTGTTTGTTTTATTTTTCCCTTTCGGAGTCACCTAGTGCAG | 9150 fluorescence intensity (a.u.)
TTCCCGTGCCGCTATGACCTTCGTCCTCGGTCTGTTGACCCGGAGTCACCTAGTGCAG | 14700 fluorescence intensity (a.u.)
CTGCCTCGATCGATCGATCTCATCTCATCTGCGCTGTTCTCGGAGTCACCTAGTGCAG | 8160 fluorescence intensity (a.u.)
GAGGGCGGTTTTGCTGATGTGGCGTTGACGTGGCGATGTTCGGAGTCACCTAGTGCAG | 11500 fluorescence intensity (a.u.)
ATCTAGTCCCACCTATTATACACACATTACGTCTTGAAGTCGGAGTCACCTAGTGCAG | 9850 fluorescence intensity (a.u.)
TAACCTATTATATTCCGCTTGGTGTTTTTTTACCCTTTATCGGAGTCACCTAGTGCAG | 13000 fluorescence intensity (a.u.)
CTGTTTAGATCTCCTAGCAACATTTTACACTCTCTTGCATCGGAGTCACCTAGTGCAG | 8740 fluorescence intensity (a.u.)
GAATGTGCAATTATGTTCTTTTCTTGAATGATTTGCTAATCGGAGTCACCTAGTGCAG | 10000 fluorescence intensity (a.u.)
CCACTCGCACCCAACGGATCTCTCCCTCCTCCGCCTTCTCCGGAGTCACCTAGTGCAG | 8560 fluorescence intensity (a.u.)

Sequence | binding signal
GGTAAGAGCAGCCTTGTATTGTACTGTCCAATTTTTGATCCGGAGTCACCTAGTGCAG | 9450 fluorescence intensity (a.u.)
GCCGCCGCTGGCGGGTGGGGATCGGTGGGGCAGTTCGGGCCGGAGTCACCTAGTGCAG | 9050 fluorescence intensity (a.u.)
GGGTTCTTGGCTACTGGGGCTGTCTCTCTATCTTTCTTGACGGAGTCACCTAGTGCAG | 21600 fluorescence intensity (a.u.)
CTCCGCGTCGATCACCCAACCACGCCCGCCGCCGCCGCCGCGGAGTCACCTAGTGCAG | 8060 fluorescence intensity (a.u.)
TTTTTACTTCGATTTCTGTTATCACATTTTTTAAAAATTGCGGAGTCACCTAGTGCAG | 9970 fluorescence intensity (a.u.)
TTGTATATTGTTTGTGCTTTTGGTCGACCTGTCTGTCACCCGGAGTCACCTAGTGCAG | 9530 fluorescence intensity (a.u.)
ACCGACCTACTTAATTGCCTCCTGCCAAAATGACCCTTTACGGAGTCACCTAGTGCAG | 9140 fluorescence intensity (a.u.)
GGTGCTCAGCCTCCGCGCCAACAGCCTCTCCGGCGAGTTCCGGAGTCACCTAGTGCAG | 8200 fluorescence intensity (a.u.)
AACTTTCTTGTTTTCCATTACCACATTTTCCACATAAAAGCGGAGTCACCTAGTGCAG | 8050 fluorescence intensity (a.u.)
AAAGGGAGAGTTCAATGATGGGGTAGGGTACAGGGGAAACCGGAGTCACCTAGTGCAG | 12300 fluorescence intensity (a.u.)
TATCTCCTCTTCTCTCTTCTTATCCGTATGTGTTTAGAGCCGGAGTCACCTAGTGCAG | 9630 fluorescence intensity (a.u.)
ACACACGATTTCACTACCGCCCGATTTACTGTCGCGAAGACGGAGTCACCTAGTGCAG | 11100 fluorescence intensity (a.u.)
TTCTGTACGTCTGTGTGTGTAGTCAACCTAAAATAATTTTCGGAGTCACCTAGTGCAG | 10500 fluorescence intensity (a.u.)
CGTTCATCCTGTCCACCCAGAGCCATTGCCACACACACACCGGAGTCACCTAGTGCAG | 8250 fluorescence intensity (a.u.)
ATTTGTGTACGGCACCGCCCCACCCGCCACGCCTCCGCCTCGGAGTCACCTAGTGCAG | 8580 fluorescence intensity (a.u.)
CCGTGAAGCGACTCCCTCACCAATCATTCGCCTCTACTATCGGAGTCACCTAGTGCAG | 9240 fluorescence intensity (a.u.)
CCCGCCTCGCCGTCTCCCGTTCGGAACACCAAGCTCCAGCCGGAGTCACCTAGTGCAG | 8710 fluorescence intensity (a.u.)
GATTTATCACACCCAGCCGATCTTAGGGCTGCTTCTACGTCGGAGTCACCTAGTGCAG | 8080 fluorescence intensity (a.u.)
GGACTATCGCGCGCGTTTTTTTGGCGGGGAGCGAGGCGGGCGGAGTCACCTAGTGCAG | 10400 fluorescence intensity (a.u.)
TTACACAGGCCAGTCGTCTTCTTCGTCATCCTCGATCAGCCGGAGTCACCTAGTGCAG | 8900 fluorescence intensity (a.u.)
CGTATTACCGGTTACAAACTTGCAAATGATGACAGTCACACGGAGTCACCTAGTGCAG | 8200 fluorescence intensity (a.u.)
